# Screen size: about 320,000 compounds; about 22,000 (6.9%) were called active. The inconclusive results got no clear call from the source; some entries with a clear call stand among them for comparison. Calls come from the whole dose curve; as a rule, active = well fitted inhibition curve with a large enough effect; inconclusive = small, poorly fitted or top-dose-only effect, or another doubt; inactive = no such curve, though single readings can be large or run the other way. Potencies beside an inconclusive call are fits to weak or partial responses and may not hold up.
# Experiment: Primary qHTS for delayed death inhibitors of the malarial parasite plastid, 96 hour incubation
# Details: P. falciparum luciferase reporter growth; series mostly up to 28.7 µM
# Outline: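 Luminescence readout: decreased luciferase signal marks inhibited growth of reporter-expressing P. falciparum in infected red cells (2% hematocrit, 0.05% parasitemia final), exposed to compound two generations (96 h, 37 C, 5% CO2).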
# Potency is the fitted concentration of half-maximal effect.
row,SMILES,Potency
1,Cc1ccc(S(=O)(=O)CCSc2n[nH]c(=O)n2-c2ccc3c(c2)OCCO3)cc1,inactive
2,CC(NC(=O)COC(=O)c1cc(NS(=O)(=O)c2ccc(Cl)c([N+](=O)[O-])c2)ccc1O)C1CC2CCC1C2 (stereo unspecified),"inconclusive: 9.28 µM [inhibitor, partial curve, poor fit]"
3,COC(=O)c1c(-c2ccc(F)cc2)csc1NC(=O)c1ccco1,"inconclusive: 18.5 µM [inhibitor, single point]"
4,Cc1nc2nc(-c3ccc(Cl)cc3)[nH]n2c(=O)c1C,inactive
5,CC(C)CC(=O)N1CCN(Cc2ccccc2Br)CC1,"inconclusive: 11.7 µM [inhibitor, single point]"
6,O=c1c2ccccc2[nH]c(=S)n1Cc1cccs1,"inconclusive: 11.7 µM [inhibitor, single point]"
7,O=C(NCC1CCCO1)c1ccccc1NS(=O)(=O)c1ccc(F)cc1 (stereo unspecified),"inconclusive: 2.33 µM [inhibitor, full curve]"
8,CCC(C)(C)NC(=O)C(c1cccc(OC)c1OC)N(C(=O)CCC(=O)Nc1cc(C)on1)C(C)C (stereo unspecified),"inconclusive: 18.5 µM [inhibitor, single point]"
9,CCOC(=O)c1cccc(NC(=O)CC2Oc3ccccc3NC2=O)c1 (stereo unspecified),inactive
10,CCC(C)C(=O)Nc1nc(C)c(-c2csc(Nc3cc(OC)ccc3OC)n2)s1 (stereo unspecified),active: 9.28 µM
11,COc1ccc(OCC(=O)N2c3ccc(C)cc3C3CN(C)CCC32)cc1 (stereo unspecified),inactive
12,Cc1ccc(/C=C/S(=O)(=O)NCC(=O)OCC(=O)Nc2ccc(C(=O)N(C)C)cc2)cc1,"inconclusive: 18.5 µM [inhibitor, single point]"
13,CC(C(O)C12CC3CC(CC(C3)C1)C2)N1CCCCC1 (stereo unspecified),"inconclusive: 4.15 µM [inhibitor, partial curve, poor fit]"
14,CCCc1cc(=O)n2[nH]c(C)c(-c3ccc(Cl)cc3)c2n1,inactive
15,O=C(COC(=O)[C@@H]1CC(O)CN1S(=O)(=O)c1ccc2c(c1)OCCO2)Nc1ccccc1F (stereo partly specified),"inconclusive: 1.17 µM [inhibitor, partial curve]"
16,COC(=O)C1=C(C)NC2=C(C(=O)CC(C)(C)C2)C1c1cccc(C)n1 (stereo unspecified),"inconclusive: 11.7 µM [inhibitor, partial curve]"
17,O=C(CCCCCNC(=O)c1ccccc1)N/N=C/c1ccc(F)cc1,"inconclusive: 13.1 µM [inhibitor, single point]"
18,COc1cccc(CN(C(=O)c2ccccc2Br)C2CCS(=O)(=O)C2)c1 (stereo unspecified),"inconclusive: 18.5 µM [inhibitor, single point]"
19,O=C(c1ccc2c3c(cccc13)CC2)N1CCOCC1,"inconclusive: 18.5 µM [inhibitor, single point]"
20,Cc1ccc(CC(=O)Nc2ccccc2-c2ccccc2)cc1C,"inconclusive: 18.5 µM [inhibitor, single point]"
21,CC(NC(=O)c1ccc2ccccc2n1)c1ccc(Br)cc1 (stereo unspecified),"inconclusive: 18.5 µM [inhibitor, single point]"
22,CCOC(=O)COc1ccc([N+](=O)[O-])cc1,active: 0.415 µM

row,SMILES,Potency
1,Cc1ccc(CN2CCN(C(=O)C3CCC3)CC2)cc1,"inconclusive: 9.28 µM [inhibitor, partial curve, poor fit]"
2,COCCCn1cc(C(=O)c2ccccc2OCC(=O)Nc2cccc(F)c2)cc(C#N)c1=O,"inconclusive: 11.7 µM [inhibitor, single point]"
3,CC(=O)Oc1ccc(C(=O)Nc2cccc(C(=O)c3ccc(C)c(C)c3)c2)cc1,inactive
4,Cn1cc(/C=C(\NC(=O)c2ccccc2Cl)C(=O)NCCCN2CCOCC2)c2ccccc21,active: 10.4 µM
5,O=C(CNC(=O)c1ccc2ccccc2c1)NCc1ccccc1F,"inconclusive: 13.1 µM [inhibitor, partial curve, poor fit]"
6,CC1CCCC(NC(=O)CNCc2ccccc2F)C1C (stereo unspecified),inactive
7,Cc1ccc(C(C)NC(=O)CSc2ccc(S(=O)(=O)N3CCOCC3)cn2)cc1C (stereo unspecified),"inconclusive: 13.1 µM [inhibitor, partial curve]"
8,NS(=O)(=O)c1ccc(CNC(=S)Nc2ccc(Cl)c(Cl)c2)cc1,inactive
9,COc1ccccc1NC(=S)NC(=O)C(C)C,"inconclusive: 9.28 µM [inhibitor, partial curve, poor fit]"
10,C#CCOCCOCCOCCNc1nc(N2CCN(C(=O)CCCCCCCCCCNC(=O)Cn3cc(CCCCCN)nn3)CC2)nc(N2CCN(C(=O)CCCCCCCCCCNC(=O)[C@@H]([C@H](C)O)n3cc(C)nn3)CC2)n1,active: 0.522 µM
11,c1ccc(CCn2c3ccccc3c3nnc(SCc4ccc5nonc5c4)nc32)cc1,"inconclusive: 10.4 µM [inhibitor, partial curve, poor fit]"
12,CCN(Cc1ccccc1)C(=O)COc1ccccc1,active: 8.28 µM
13,COCCNc1nc(CSc2ccccc2)nc2sc(C)c(C)c12,"inconclusive: 18.5 µM [inhibitor, single point]"
14,CC(Oc1ccc(F)cc1)C(=O)Nc1ccc(S(=O)(=O)NC2=NCCCCC2)cc1 (stereo unspecified),"inconclusive: 13.1 µM [inhibitor, partial curve, poor fit]"
15,CCOc1ccc(C(=O)/C=C/Nc2ccc(S(=O)(=O)Nc3onc(C)c3C)cc2)cc1,inactive
16,COc1cc(/C=C/C(=O)OCC(=O)N2c3ccccc3NC(=O)C2(C)C)cc(OC)c1OC,"inconclusive: 16.5 µM [inhibitor, single point]"
17,Cc1cc(OC(C)C(=O)NC2CC(C)(C)NC(C)(C)C2)c2c(C)cc(=O)oc2c1 (stereo unspecified),"inconclusive: 18.5 µM [inhibitor, single point]"
18,O=C1CSc2ccc(S(=O)(=O)N3CCN(c4ccccc4F)CC3)cc2N1,active: 13.1 µM
19,Cc1c(C(=O)Nc2ccc(Cl)cc2)c2ccccn2c1C(=O)c1ccccc1,"inconclusive: 1.04 µM [inhibitor, full curve, poor fit]"
20,CN(CC(=O)N1CCc2ccccc2C1)S(=O)(=O)c1ccc2c(c1)c(=O)n(C)c(=O)n2C,"inconclusive: 18.5 µM [inhibitor, single point]"
21,COc1cc(OC)c2ccc(=O)oc2c1C(CC(=O)N1CCN(c2ccccc2)CC1)c1ccc2c(c1)OCO2 (stereo unspecified),active: 13.1 µM
22,COc1cc(/C=N/Nc2nc3ccccc3[nH]2)ccc1O,"inconclusive: 0.37 µM [inhibitor, full curve, poor fit]"

# Six entries from above, with tabs.
row	SMILES	Potency
17	Cc1cc(OC(C)C(=O)NC2CC(C)(C)NC(C)(C)C2)c2c(C)cc(=O)oc2c1 (stereo unspecified)	inconclusive: 18.5 µM [inhibitor, single point]
18	O=C1CSc2ccc(S(=O)(=O)N3CCN(c4ccccc4F)CC3)cc2N1	active: 13.1 µM
19	Cc1c(C(=O)Nc2ccc(Cl)cc2)c2ccccn2c1C(=O)c1ccccc1	inconclusive: 1.04 µM [inhibitor, full curve, poor fit]
20	CN(CC(=O)N1CCc2ccccc2C1)S(=O)(=O)c1ccc2c(c1)c(=O)n(C)c(=O)n2C	inconclusive: 18.5 µM [inhibitor, single point]
21	COc1cc(OC)c2ccc(=O)oc2c1C(CC(=O)N1CCN(c2ccccc2)CC1)c1ccc2c(c1)OCO2 (stereo unspecified)	active: 13.1 µM
22	COc1cc(/C=N/Nc2nc3ccccc3[nH]2)ccc1O	inconclusive: 0.37 µM [inhibitor, full curve, poor fit]

# The results go on:

row,SMILES,Potency
1,COc1ccc(NC(=O)c2cc(-c3cc(C)cc(C)c3O)n[nH]2)cc1Cl,"inconclusive: 1.47 µM [inhibitor, full curve, poor fit]"
2,CC(C)N1CCC(N2CCN(Cc3cnc(-c4ccccc4)s3)CC2CCO)CC1 (stereo unspecified),"inconclusive: 10.4 µM [inhibitor, single point]"
3,COc1ccc(Nc2nc(-c3cccnc3)nc3ccccc23)cn1,"inconclusive: 3.7 µM [inhibitor, single point]"
4,C=CCn1c(C)nc2c(sc3nc4c(cc32)COC(C)(C)C4)c1=O,inactive
5,Cc1nnc(NC(=O)c2cccc(S(=O)(=O)N3CCCC3)c2)s1,inactive
6,CC(Sc1nc(N)cc(N)n1)C(=O)NCC1CCCO1 (stereo unspecified),"inconclusive: 9.28 µM [inhibitor, single point]"
7,COC(=O)Cn1c(CCS(=O)(=O)c2ccc(C)c(C)c2)nc2ccccc21,"inconclusive: 2.62 µM [inhibitor, partial curve, poor fit]"
8,COc1ccc(N2C(=O)CC3(CCCC3)CC2=O)cc1,active: 6.57 µM
9,COc1ccc(OC)c(NC(=O)c2ccccc2N(C)S(=O)(=O)c2ccc(C)cc2)c1,"inconclusive: 18.5 µM [inhibitor, single point]"
10,CC(C)(C)NC(=O)COC(=O)c1ccc2c(c1)C(=O)N(Cc1ccco1)C2=O,inactive
11,CC(C)C(=O)Nc1ccc(NC(=O)CCc2ccccc2)cn1,"inconclusive: 13.1 µM [inhibitor, single point]"
12,Cc1cccc(-c2cc3nc(-c4ccccc4)cc(N4CCC5(CC4)OCCO5)n3n2)c1,inactive
13,c1ccc(-c2ccccc2OCCCN2CCCCC2)cc1,"inconclusive: 18.5 µM [inhibitor, single point]"
14,CC(C)n1nc(C(=O)OCC(=O)c2c[nH]c3ccccc23)c2ccccc2c1=O,active: 6.57 µM
15,Nc1nc(N)c(Cc2ccc(Cl)cc2Cl)c(N)n1,"inconclusive: 4.15 µM [inhibitor, partial curve, poor fit]"
16,CC[N+](CC)(CC)C/C(N)=N/O,"inconclusive: 0.147 µM [inhibitor, full curve, poor fit]"
17,Cc1ccc(C(=O)OCC(=O)Nc2cc(F)ccc2F)cc1NC(=O)c1ccco1,"inconclusive: 0.0029 µM [inhibitor, full curve, poor fit]"
18,CC(C(=O)c1c[nH]c2ccccc12)N1CCN(C(=O)c2ccco2)CC1 (stereo unspecified),active: 2.08 µM
19,Cc1ccc(-c2nnn(CC(=O)N(CCN3CCOCC3)C(C(=O)NC(C)(C)C)c3ccco3)n2)cc1 (stereo unspecified),"inconclusive: 8.28 µM [inhibitor, partial curve, poor fit]"
20,COc1ccc(-c2c(C(C)=O)c(C)nc3sc4c(c23)NC(c2ccccc2)NC4=O)cc1 (stereo unspecified),"inconclusive: 0.0415 µM [inhibitor, full curve, poor fit]"
21,Cc1ccc(C(C(=O)NCC2CCCO2)N(C(=O)c2snc(C(N)=O)c2N)c2ccc(C)c(C)c2)o1 (stereo unspecified),"inconclusive: 16.5 µM [inhibitor, single point]"
22,COc1ccc(NC(=O)C2CCC(CNc3c(N4CCCCC4)c(=O)c3=O)CC2)c(OC)c1 (stereo unspecified),inactive

# Reference: PubChem BioAssay AID504834 (National Center for Advancing Translational Sciences (NCATS), 2011)
